Positions of bridges follow the written chain, without caps; N, C: chain ends. No end group written: not given here.
Test system: diet-induced obese mice
Assay: Interventional treatment with defensins in diet-induced obese mice: weight, fat percentage, glucose homeostasis
Format: in vivo, C57/BL/6J mice
Settings: HFD fed groups, entire study period
Description: FIG. 1B. Schematic outline of the experimental set up for investigating the effects of mammalian alfa and/or beta defensins on mice metabolism. At week −1, the C57/BL/6J mice arrived. At week 0 feces was collected. During run-in between week 0 and week 12 the mice were fed a high fat diet. At week 12 the mice were clinically examined by magnetic resonance scan to estimate fat distribution, feces was collected and oral glucose tolerance test (OGTT) and glucose-stimulated insulin secretion (GSIS) performed. At week 13-0 the mice were divided in groups and cages with 4 mice percage and 3 cages per group. At week 0, 12 and 13-10, the microbiome of the faeces was analysed. At week 13-2, 13-4, 13-6, 13-8 and 13-10 the mice were scanned and blood glucose and insulin levels were measured. At week 13-9, insulin tolerance test (ITT) was conducted. At week 13-10 (termination), several analyses were conducted, in particular the mice were weighed and scanned, and plasma composition and microbiota composition of colon, cecum and small intestine were assessed. In addition, iWAT, eWAT and liver weight were measured.
Mice and diets. The experiment elucidates the effect of hBD-2 and HD5 in the treatment of metabolic syndrome (MetS) in diet-induced obese mice. A run-in period of 13 weeks where mice were fed a very HFD (60% energy from fat) preceded the intervention. […]

**Q.** With “GIGDPVTCLKSGAICHPVFCPRRYKQIGTCGLPGTKCCKKP (disulfide 8-37, 15-30, 20-38 (inferred)) [hBD-2, human beta defensin 2]” as the substance, how does the food intake read?
**A.** equal food intake throughout the entire study period

**Q.** With “human intestinal alpha defensin 5 (ATCYCRTGRCATRESLSGVCEISGRLYRLCCR; listed as Homo sapiens) [HD5]” as the substance, how does the food intake read?
**A.** same food intake during the study period
